Laboratory results taken from paper PMC5792031.
No constants are given. Whether binding was seen depends on the method and setting. Binding seen in cells or lysates may run through a third protein. Some entries that bind do so weakly or less than the wild type. Tags and fused reporters may be left off the sequences shown.

Protein sequences, listed by entry. Tags and fused reporters are not part of them. Lines headed by an entry give the natural chain unless they say otherwise; changes in a name come on top. Residues count along the entry.
UniProt P15682: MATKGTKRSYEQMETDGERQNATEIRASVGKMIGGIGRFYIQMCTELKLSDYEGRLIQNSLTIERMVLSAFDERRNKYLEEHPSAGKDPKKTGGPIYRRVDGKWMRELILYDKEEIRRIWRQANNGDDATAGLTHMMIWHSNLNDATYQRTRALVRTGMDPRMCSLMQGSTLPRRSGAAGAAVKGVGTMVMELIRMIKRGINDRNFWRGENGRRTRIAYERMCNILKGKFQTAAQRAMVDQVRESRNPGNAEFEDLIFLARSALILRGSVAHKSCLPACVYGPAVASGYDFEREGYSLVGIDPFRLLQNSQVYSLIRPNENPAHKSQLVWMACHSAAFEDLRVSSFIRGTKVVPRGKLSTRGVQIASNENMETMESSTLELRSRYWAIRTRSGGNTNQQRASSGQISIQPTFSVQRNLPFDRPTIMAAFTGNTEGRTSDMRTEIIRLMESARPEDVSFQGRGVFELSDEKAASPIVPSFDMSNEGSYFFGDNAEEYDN
GST-NP1-351 (influenza A virus A/WSN/33 (WSN, H1N1)): residues 1-351 of P15682
GST-NP1-271 (influenza A virus A/WSN/33 (WSN, H1N1)): residues 1-271 of P15682

B1: Flag-tagged PLSCR1 (protein, UniProt O15162-1 1-318)
chain: MDKQNSQMNASHPETNLPVGYPPQYPPTAFQGPPGYSGYPGPQVSYPPPPAGHSGPGPAGFPVPNQPVYNQPVYNQPVGAAGVPWMPAPQPPLNCPPGLEYLSQIDQILIHQQIELLEVLTGFETNNKYEIKNSFGQRVYFAAEDTDCCTRNCCGPSRPFTLRIIDNMGQEVITLERPLRCSSCCCPCCLQEIEIQAPPGVPIGYVIQTWHPCLPKFTIQNEKREDVLKISGPCVVCSCCGDVDFEIKSLDEQCVVGKISKHWTGILREAFTDADNFGIQFPLDLDVKMKAVMIGACFLIDFMFFESTGSQEQKSGVW
B2: PLSCR1 (untagged, pCAGGS-PLSCR1) (protein, UniProt O15162-1 1-318)
chain: B1 chain

Tests used:
[1] = target: GST-NP1-271 (influenza A virus A/WSN/33 (WSN, H1N1)) (UniProt P15682); test: pull-down
[2] = target: GST-NP1-351 (influenza A virus A/WSN/33 (WSN, H1N1)) (UniProt P15682); test: pull-down
[3] = target: GST-WSNNP (influenza A virus A/WSN/33 (WSN, H1N1)) (UniProt P15682); test: pull-down; only the target purified

Binder	binding [1]	binding [2]	binding [3]
B1	binds	binds	
B2			binds
